No constants are given. Whether binding was seen depends on the method and setting. Binding seen in cells or lysates may run through a third protein. A yes stands for co-enrichment or nearness to the bait. Other partners may have been found.

By UniProt entry, the sequences of proteins in these tests, tags left out.
UniProt Q8TEB1: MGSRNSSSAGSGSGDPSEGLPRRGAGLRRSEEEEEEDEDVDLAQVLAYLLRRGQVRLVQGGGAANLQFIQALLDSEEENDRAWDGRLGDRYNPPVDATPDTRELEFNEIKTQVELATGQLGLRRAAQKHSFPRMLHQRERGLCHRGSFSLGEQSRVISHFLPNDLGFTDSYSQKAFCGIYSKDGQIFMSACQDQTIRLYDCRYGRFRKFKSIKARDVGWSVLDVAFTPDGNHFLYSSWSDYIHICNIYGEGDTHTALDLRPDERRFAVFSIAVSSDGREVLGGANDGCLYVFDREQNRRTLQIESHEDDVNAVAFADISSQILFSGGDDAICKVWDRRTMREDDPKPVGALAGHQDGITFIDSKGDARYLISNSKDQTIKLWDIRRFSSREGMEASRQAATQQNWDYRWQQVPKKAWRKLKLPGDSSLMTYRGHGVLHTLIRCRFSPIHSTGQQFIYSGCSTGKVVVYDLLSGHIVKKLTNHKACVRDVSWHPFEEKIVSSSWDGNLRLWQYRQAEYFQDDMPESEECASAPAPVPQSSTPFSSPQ
UniProt P38936: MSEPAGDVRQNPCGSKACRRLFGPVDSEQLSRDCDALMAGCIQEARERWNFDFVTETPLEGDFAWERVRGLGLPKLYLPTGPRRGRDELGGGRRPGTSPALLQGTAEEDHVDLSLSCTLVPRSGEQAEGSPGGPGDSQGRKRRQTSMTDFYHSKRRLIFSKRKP

Results on one substance are retold here after paper PMC5430835.

For this experiment, the target named is Flag-HA-DCAF11 (UniProt Q8TEB1). Description: affinity purification with mass spectrometry; Flag-HA-DCAF11 from transfected hFOB1.19, U2OS and Saos-2 cells; anti-Flag agarose, then anti-HA agarose (results); LC-MS/MS, MASCOT search.

Take p21^Cip1 (from UniProt P38936 1-164): the binding result is recorded as “binds”.
